Where two headings read alike, the source gives them in different places. Results are given in words; binding and its absence hold for the method and conditions named. For part of these data: Binding seen in cells or lysates may run through a third protein. Some binding calls cover weakened binding; strength is not graded here. For part of these data: Where a sequence is shown, tags or fusion partners need not be part of it.

Amino acid sequences for entries named in this document (tags omitted).
UniProt P29468: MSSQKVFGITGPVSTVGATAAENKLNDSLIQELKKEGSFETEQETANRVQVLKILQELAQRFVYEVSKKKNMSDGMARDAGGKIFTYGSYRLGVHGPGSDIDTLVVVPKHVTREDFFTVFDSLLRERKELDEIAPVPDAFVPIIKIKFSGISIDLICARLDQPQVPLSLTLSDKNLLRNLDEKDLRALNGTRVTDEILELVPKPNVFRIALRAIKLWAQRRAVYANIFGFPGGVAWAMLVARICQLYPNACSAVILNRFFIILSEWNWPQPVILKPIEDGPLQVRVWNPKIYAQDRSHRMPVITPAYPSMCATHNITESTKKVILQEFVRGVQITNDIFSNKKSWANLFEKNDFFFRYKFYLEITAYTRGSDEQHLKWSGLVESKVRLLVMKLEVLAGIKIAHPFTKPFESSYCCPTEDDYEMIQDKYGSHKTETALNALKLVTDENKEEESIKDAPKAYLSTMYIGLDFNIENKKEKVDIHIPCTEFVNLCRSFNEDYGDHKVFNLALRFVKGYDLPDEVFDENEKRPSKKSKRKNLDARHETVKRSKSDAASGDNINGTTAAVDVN

The text below walks through data of PMC6436931, “Activation of the Endonuclease that Defines mRNA 3′ Ends Requires Incorporation into an 8-Subunit Core Cleavage and Polyadenylation Factor Complex” (Molecular Cell, 2019).

Experiment [1] deals with T1, Pfs2-3C-SII (S. cerevisiae) (UniProt P42841).
T1 sequence: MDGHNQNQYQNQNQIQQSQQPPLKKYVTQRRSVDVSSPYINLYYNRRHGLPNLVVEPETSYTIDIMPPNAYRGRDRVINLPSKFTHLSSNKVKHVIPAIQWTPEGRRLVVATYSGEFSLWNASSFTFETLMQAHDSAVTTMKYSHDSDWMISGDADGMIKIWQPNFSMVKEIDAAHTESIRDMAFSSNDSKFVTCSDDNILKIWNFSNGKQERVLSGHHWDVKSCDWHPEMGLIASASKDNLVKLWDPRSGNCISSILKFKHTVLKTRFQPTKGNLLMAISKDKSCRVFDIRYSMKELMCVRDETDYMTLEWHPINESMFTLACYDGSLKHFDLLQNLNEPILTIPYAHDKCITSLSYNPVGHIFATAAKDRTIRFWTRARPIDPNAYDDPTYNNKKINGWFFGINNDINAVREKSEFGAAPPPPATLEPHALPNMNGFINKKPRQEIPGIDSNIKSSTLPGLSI
Kind of experiment: co-purification (StrepTactin affinity, anion exchange, size exclusion chromatography); subunits co-expressed in Sf9 cells; complex captured by the one StrepII-tagged subunit, Mono Q 100-1000 mM NaCl gradient, Superose 6 Increase in 10 mM HEPES pH 7.9, 150 mM NaCl, 1.0 mM TCEP; SDS-PAGE; both purified.

Experiment [2] deals with T2, Ysh1 (full length, untagged) (S. cerevisiae) (UniProt Q06224).
T2 sequence: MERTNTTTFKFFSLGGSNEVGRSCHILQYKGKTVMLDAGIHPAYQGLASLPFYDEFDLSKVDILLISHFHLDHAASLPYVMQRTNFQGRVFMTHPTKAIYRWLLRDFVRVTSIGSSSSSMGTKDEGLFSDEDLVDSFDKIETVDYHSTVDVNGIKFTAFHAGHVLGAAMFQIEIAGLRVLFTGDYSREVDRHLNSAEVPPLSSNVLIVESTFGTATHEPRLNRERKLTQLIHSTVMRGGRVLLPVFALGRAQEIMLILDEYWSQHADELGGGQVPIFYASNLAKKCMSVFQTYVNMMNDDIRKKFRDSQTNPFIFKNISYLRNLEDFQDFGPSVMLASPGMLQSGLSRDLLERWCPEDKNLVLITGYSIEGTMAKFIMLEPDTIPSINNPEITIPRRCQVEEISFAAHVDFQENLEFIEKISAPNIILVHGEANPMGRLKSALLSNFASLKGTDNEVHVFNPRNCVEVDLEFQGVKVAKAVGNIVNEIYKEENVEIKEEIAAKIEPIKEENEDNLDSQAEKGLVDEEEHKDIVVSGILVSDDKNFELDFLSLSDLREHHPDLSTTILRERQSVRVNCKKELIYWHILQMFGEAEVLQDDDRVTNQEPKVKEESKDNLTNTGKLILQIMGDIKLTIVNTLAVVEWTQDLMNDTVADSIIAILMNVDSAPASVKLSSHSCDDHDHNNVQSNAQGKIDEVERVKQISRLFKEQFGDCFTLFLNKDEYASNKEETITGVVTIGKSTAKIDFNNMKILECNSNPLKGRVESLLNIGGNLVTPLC
Nature of the experiment: pull-down; pairs of Ysh1 and Mpe1 constructs co-expressed with full-length Cft2 in insect cells (baculovirus); StrepII-tagged Mpe1 constructs captured from cell lysates on Strep-Tactin resin; SDS-PAGE.

The target in experiment [3] is T3, Mpe1-3C-SII (full length, C-terminal StrepII tag) (S. cerevisiae) (UniProt P35728).
T3 sequence: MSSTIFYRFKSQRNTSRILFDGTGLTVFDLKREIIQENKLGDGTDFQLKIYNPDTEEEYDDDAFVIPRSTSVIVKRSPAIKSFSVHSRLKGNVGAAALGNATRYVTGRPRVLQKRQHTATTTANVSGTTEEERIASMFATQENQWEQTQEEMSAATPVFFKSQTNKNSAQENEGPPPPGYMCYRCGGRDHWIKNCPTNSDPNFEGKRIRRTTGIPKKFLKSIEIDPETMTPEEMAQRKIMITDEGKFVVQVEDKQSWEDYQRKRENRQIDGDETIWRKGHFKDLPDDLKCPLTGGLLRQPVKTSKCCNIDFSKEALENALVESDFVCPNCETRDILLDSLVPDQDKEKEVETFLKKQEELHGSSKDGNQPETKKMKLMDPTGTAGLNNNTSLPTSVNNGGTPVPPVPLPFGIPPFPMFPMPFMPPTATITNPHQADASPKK
The description is as above.

For experiment [4], the target named is T1, Pfs2-3C-SII (S. cerevisiae). Kind of experiment: co-purification (StrepTactin affinity, anion exchange, size exclusion chromatography); subunits co-expressed in Sf9 cells; complex captured by the one StrepII-tagged subunit, Mono Q 100-1000 mM NaCl gradient, Superose 6 Increase in 10 mM HEPES pH 7.9, 150 mM NaCl, 1.0 mM TCEP; SDS-PAGE; both purified. This is another data set of the same source.

The target in experiment [5] is T2, Ysh1 (full length, untagged) (S. cerevisiae). Nature of the experiment: HDX-MS; purified Ysh1-Mpe1, Ysh1-Yjr141w and Ysh1-Mpe1-Yjr141w complexes; ~95% D2O, 10 mM HEPES pH 7.9, 150 mM NaCl, 1 mM TCEP, 23°C; 0.3, 3, 30 and 300 s in triplicate; difference plots of Ysh1 peptides with and without a partner; both purified.
Experiment [6] has the same target. Kind of experiment: cross-linking; purified Ysh1-Mpe1, Ysh1-Yjr141w and Ysh1-Mpe1-Yjr141w complexes cross-linked with DSBU (BuUrBu) or DSS H12/D12, 45 min, 37°C, 100- or 50-fold excess; trypsin digest, LC-MS/MS; both purified.
For experiment [7] the target is unchanged. Nature of the experiment: co-purification (StrepTactin affinity, anion exchange, size exclusion chromatography); subunits co-expressed in Sf9 cells; complex captured by the one StrepII-tagged subunit, Mono Q 100-1000 mM NaCl gradient, Superose 6 Increase in 10 mM HEPES pH 7.9, 150 mM NaCl, 1.0 mM TCEP; SDS-PAGE; both purified.
Experiment [8] has as its target T3, Mpe1-3C-SII (full length, C-terminal StrepII tag) (S. cerevisiae). Nature of the experiment: anion exchange chromatography; complexes identified by the Strep-Tactin pull-down subjected to anion exchange chromatography; SDS-PAGE of what stayed associated; both purified.

Consider “Pap1 (untagged, in CPF_(core)) (from UniProt P29468 1-568) (enzyme)”, for which, in experiment [1], the binding result is given as “binds”.

B1: Cft2 (full length, untagged) (protein, UniProt Q12102 1-859)
chain: MTYKYNCCDDGSGTTVGSVVRFDNVTLLIDPGWNPSKVSYEQCIKYWEKVIPEIDVIILSQPTIECLGAHSLLYYNFTSHFISRIQVYATLPVINLGRVSTIDSYASAGVIGPYDTNKLDLEDIEISFDHIVPLKYSQLVDLRSRYDGLTLLAYNAGVCPGGSIWCISTYSEKLVYAKRWNHTRDNILNAASILDATGKPLSTLMRPSAIITTLDRFGSSQPFKKRSKIFKDTLKKGLSSDGSVIIPVDMSGKFLDLFTQVHELLFESTKINAHTQVPVLILSYARGRTLTYAKSMLEWLSPSLLKTWENRNNTSPFEIGSRIKIIAPNELSKYPGSKICFVSEVGALINEVIIKVGNSEKTTLILTKPSFECASSLDKILEIVEQDERNWKTFPEDGKSFLCDNYISIDTIKEEPLSKEETEAFKVQLKEKKRDRNKKILLVKRESKKLANGNAIIDDTNGERAMRNQDILVENVNGVPPIDHIMGGDEDDDEEEENDNLLNLLKDNSEKSAAKKNTEVPVDIIIQPSAASKHKMFPFNPAKIKKDDYGTVVDFTMFLPDDSDNVNQNSRKRPLKDGAKTTSPVNEEDNKNEEEDGYNMSDPISKRSKHRASRYSGFSGTGEAENFDNLDYLKIDKTLSKRTISTVNVQLKCSVVILNLQSLVDQRSASIIWPSLKSRKIVLSAPKQIQNEEITAKLIKKNIEVVNMPLNKIVEFSTTIKTLDISIDSNLDNLLKWQRISDSYTVATVVGRLVKESLPQVNNHQKTASRSKLVLKPLHGSSRSHKTGALSIGDVRLAQLKKLLTEKNYIAEFKGEGTLVINEKVAVRKINDAETIIDGTPSELFDTVKKLVTDMLAKI
Regarding B1, the binding entry was “binds weakly” in experiment [2], “binds” in experiment [3] and “binds” in experiment [4].

B2: Yjr141w (untagged, in the Ysh1-Mpe1-Yjr141w trimer) (protein, UniProt P47172 1-347)
chain: MVQYVVEWLPRIQSISVVVEGWKQVEIKNLKDTLMSISGDEEQVEDILLPVEVEEKVDASYKFKNRGKDLEWMTKLRSKSSKIYDSSIMSLPDGRWTKEELRSDSDFSIECLNCKQKIISKDNCQVLNDMPSEFWFELMDYWHCHKPDVKEDKSSYTRFETLKPSKNEILIGSSYFQGTPATFENVATTKENDNVLCIKCSAVLGQVTAGSLYKLHKWKLQLIRSGNTYKFPPECDITISLINVVKANSCRYVLVKCKTESLLVWIFSVDIGVTLTGNKSFKRAMKLLYTNSVTTINRCLNRQVVEELDFQETSFNAFYSALQHTNALLPSSMKKIGEWTISYTSLI
With B2, the binding entry in experiment [5], in experiment [6] and in experiment [7] was “binds” in each case.

B3: Ysh1-N (1-474), N-terminal catalytic domain (domain or fragment, UniProt Q06224 1-474)
chain: MERTNTTTFKFFSLGGSNEVGRSCHILQYKGKTVMLDAGIHPAYQGLASLPFYDEFDLSKVDILLISHFHLDHAASLPYVMQRTNFQGRVFMTHPTKAIYRWLLRDFVRVTSIGSSSSSMGTKDEGLFSDEDLVDSFDKIETVDYHSTVDVNGIKFTAFHAGHVLGAAMFQIEIAGLRVLFTGDYSREVDRHLNSAEVPPLSSNVLIVESTFGTATHEPRLNRERKLTQLIHSTVMRGGRVLLPVFALGRAQEIMLILDEYWSQHADELGGGQVPIFYASNLAKKCMSVFQTYVNMMNDDIRKKFRDSQTNPFIFKNISYLRNLEDFQDFGPSVMLASPGMLQSGLSRDLLERWCPEDKNLVLITGYSIEGTMAKFIMLEPDTIPSINNPEITIPRRCQVEEISFAAHVDFQENLEFIEKISAPNIILVHGEANPMGRLKSALLSNFASLKGTDNEVHVFNPRNCVEVDLEFQG
As to B3, the binding entry in experiment [3] and in experiment [8] was “binds” in each case.
